Reference: article PMC10721843
The exact form of at least one protein or probe is not confirmed. Where cells or extracts were used, other partners may take part. For some assays here: The comparison behind a weaker result is the experiment's own reference, which may not be listed here. For some assays here: At least one verdict was read from the data and is not stated in words by the source.

Protein sequences, listed by entry. Tags and fused reporters are not part of them. Lines headed by an entry give the natural chain unless they say otherwise; changes in a name come on top.
UniProt Q02880: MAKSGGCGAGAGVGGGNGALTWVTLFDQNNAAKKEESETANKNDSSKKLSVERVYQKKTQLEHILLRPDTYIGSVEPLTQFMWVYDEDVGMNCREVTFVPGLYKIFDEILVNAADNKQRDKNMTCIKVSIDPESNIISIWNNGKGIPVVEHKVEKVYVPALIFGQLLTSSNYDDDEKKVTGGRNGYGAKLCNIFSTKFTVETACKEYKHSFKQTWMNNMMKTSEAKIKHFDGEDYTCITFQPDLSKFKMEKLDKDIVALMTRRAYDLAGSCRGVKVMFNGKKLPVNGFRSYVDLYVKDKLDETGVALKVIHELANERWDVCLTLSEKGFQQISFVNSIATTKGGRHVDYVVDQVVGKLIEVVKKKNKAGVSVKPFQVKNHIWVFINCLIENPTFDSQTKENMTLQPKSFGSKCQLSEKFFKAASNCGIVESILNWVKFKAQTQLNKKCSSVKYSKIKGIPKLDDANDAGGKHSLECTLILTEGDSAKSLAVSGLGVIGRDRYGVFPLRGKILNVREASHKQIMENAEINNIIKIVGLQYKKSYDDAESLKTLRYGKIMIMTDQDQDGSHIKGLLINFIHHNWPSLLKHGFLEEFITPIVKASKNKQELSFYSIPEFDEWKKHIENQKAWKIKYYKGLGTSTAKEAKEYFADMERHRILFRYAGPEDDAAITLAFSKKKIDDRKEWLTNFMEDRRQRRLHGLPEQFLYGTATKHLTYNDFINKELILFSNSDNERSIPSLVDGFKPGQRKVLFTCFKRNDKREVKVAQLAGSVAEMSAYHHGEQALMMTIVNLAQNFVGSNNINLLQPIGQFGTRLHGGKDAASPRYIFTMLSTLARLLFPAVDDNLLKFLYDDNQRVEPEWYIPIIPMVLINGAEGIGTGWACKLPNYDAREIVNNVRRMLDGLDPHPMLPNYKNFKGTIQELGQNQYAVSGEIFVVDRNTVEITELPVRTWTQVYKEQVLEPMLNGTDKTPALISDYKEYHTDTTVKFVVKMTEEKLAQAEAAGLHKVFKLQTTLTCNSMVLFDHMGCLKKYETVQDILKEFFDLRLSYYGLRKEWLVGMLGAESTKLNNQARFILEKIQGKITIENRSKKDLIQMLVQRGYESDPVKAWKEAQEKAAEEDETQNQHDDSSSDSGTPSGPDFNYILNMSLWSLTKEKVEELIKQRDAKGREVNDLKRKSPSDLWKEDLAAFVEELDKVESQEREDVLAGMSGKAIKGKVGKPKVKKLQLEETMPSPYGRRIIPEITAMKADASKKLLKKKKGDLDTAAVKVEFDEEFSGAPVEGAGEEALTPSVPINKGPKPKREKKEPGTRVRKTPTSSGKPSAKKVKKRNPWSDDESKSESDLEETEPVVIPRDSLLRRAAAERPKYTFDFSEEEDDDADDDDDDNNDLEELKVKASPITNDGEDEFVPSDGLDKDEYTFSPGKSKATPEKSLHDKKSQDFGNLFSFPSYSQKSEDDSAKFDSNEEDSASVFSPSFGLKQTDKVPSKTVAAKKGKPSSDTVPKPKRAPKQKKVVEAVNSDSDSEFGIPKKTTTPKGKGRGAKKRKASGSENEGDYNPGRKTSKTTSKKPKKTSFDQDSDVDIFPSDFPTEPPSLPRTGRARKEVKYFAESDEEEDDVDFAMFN

Columns and labels:
[1] = biological target: TOP2B (DNA topoisomerase II beta) (Homo sapiens) (UniProt Q02880); test: EMSA; details: Cryo-EM: 20 mM HEPES pH 8.0, 5 mM KCl, 5 mM MgCl2, 0.5 mM ATP, 8.3 uM TOP2B, 16.7 uM DNA, 1.67 uM etoposide; immobilized template: 8.7 mM HEPES pH 7.6, 130 mM KCl; protein in a lysate after overexpression; residues 1-1626
[2] = biological target: TOP2B (DNA topoisomerase II beta) (Homo sapiens) (UniProt Q02880); test: cryo-EM; details: etoposide, 5 mM MgCl2, 0.5 mM ATP, both strands cleaved, DNA bent about 90 degrees, Cryo-EM: 20 mM HEPES pH 8.0, 5 mM KCl, 8.3 uM TOP2B, 16.7 uM DNA, 1.67 uM etoposide, immobilized template: 8.7 mM HEPES pH 7.6, 130 mM KCl, protein in a lysate after overexpression, residues 1-1626

GTCGTGACGTACATGGCCATATATGGGAAGCAGGAAGCCCTAATATGGCAGGACCGGCCGGGA (double strand) [EGR1 #3-1]
binding result [1]: binds more weakly

GAGTCGCGAGAGATCCCAGCGCGCAGAACTTGGGGAGCCGCCGCCGCCAT (double strand) [EGR1 #3-3 (EGR1 TSS 50 bp)]
binding result [2]: binds
binding result [1]: binds

GGGCCGGTCCTGCGGCGGCGGAAGCTGGCTGCGGCGGCGG (double strand) [EGR1 #3-4]
binding result [1]: binds more weakly

CCCGGATCCGCCTCTATTTGAAGGGTCTGGAACGGCACGGGTCCGCCTCC (double strand) [EGR1 #3-2]
binding result [1]: binds more weakly
